Percent effect of library compounds

Chains of the proteins cited; added tags and fusions are not shown. Residues count along the entry.
UniProt P9WPC5, whole entry: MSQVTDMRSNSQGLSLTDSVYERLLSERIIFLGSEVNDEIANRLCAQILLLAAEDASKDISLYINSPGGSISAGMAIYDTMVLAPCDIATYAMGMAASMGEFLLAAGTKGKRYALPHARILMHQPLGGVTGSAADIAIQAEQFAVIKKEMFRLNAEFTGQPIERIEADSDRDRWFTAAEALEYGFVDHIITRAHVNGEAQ
UniProt P9WPC3, whole entry partner: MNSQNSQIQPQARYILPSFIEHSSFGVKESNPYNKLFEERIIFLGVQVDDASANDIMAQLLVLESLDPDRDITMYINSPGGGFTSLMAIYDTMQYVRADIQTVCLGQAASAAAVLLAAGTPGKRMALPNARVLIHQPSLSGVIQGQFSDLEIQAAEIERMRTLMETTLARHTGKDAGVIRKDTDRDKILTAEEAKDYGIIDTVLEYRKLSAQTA
UniProt A4I591, 1-473: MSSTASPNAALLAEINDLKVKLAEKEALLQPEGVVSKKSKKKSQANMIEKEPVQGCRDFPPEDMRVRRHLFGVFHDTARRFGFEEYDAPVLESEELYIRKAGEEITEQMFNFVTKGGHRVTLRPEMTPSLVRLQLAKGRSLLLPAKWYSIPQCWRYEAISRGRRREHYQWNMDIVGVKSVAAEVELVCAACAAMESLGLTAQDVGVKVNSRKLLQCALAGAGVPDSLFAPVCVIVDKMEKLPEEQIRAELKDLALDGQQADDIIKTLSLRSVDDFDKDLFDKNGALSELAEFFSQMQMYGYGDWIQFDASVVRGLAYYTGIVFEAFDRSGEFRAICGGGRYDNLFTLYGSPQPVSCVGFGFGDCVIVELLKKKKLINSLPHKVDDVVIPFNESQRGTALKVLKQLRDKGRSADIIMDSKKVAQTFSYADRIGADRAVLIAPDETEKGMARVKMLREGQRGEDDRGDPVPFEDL

From ChEMBL document CHEMBL3988442, “University of Dundee, Small-Polar-MMV Screening Library” (2021).

Each number is a percent effect as filed.
The controls that fix the scale are not given in the record; negative values are as filed.
Compounds were drawn at random from those tested, without regard to their results.

A: 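ClpP1P2, Mycobacterium tuberculosis (UniProt P9WPC5 and UniProt P9WPC3). Protease assay of ClpP1P2, read by the AMC dye that it sets free. Tested at 50 µM. Direction is inferred from only a few compounds that gave an IC50; most scored high, so higher reads as stronger inhibition. Most other retested compounds had strongly negative values. Of about 69,000 compounds tested this way, about 10 (0.015%) reached 50% or more in at least one test.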
B: 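Enzyme assay of histidyl-tRNA synthetase; the read-out is not stated. Target: Histidine-tRNA ligase, Leishmania infantum (UniProt A4I591). Compounds at 30 µM. The record gives no direction; compounds that gave an IC50 in retests scored well above the rest, so higher reads as stronger inhibition. The assay is labelled LdHisRS but filed under L. infantum. Size under these conditions: about 69,000 compounds, about 410 of them at 50% or above in at least one test.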

structure	A	B
COc1ccc(-n2c(CO)nc3ccccc32)cc1CO	-2.059%	34.29%
Cc1ccc(OCCN(C)C(=O)CCCN2CCCC2=O)c(C)c1	3.178%	16.39%
Cc1oncc1C(=O)N1CC[C@H]2[C@@H]1CCC(=O)N2CC1CC1	-9.881%	0%
COCCn1cncc1Cn1cccc(C(F)(F)F)c1=O	11.54%	2.564%
Cc1noc(C)c1CN1CCCC2(CCN(C(=O)CC3CC3)C2)C1 (stereo unspecified)	8.539%	12.2%
O=C(NCc1ccccc1Cn1cncn1)C1CCCC1	1.427%	16.67%
Cc1cc(C(=O)Nc2nnn[nH]2)ccc1I	-6.18%	11.76%
O=C(NCC1(c2cccs2)CCCCC1)N1CCOC(CO)C1 (stereo unspecified)	-0.7067%	5.208%
CCc1ocnc1C(=O)N1CCCC1c1noc(C2CC2)n1 (stereo unspecified)	-40.42%	7.339%
COc1ccccc1-c1c[nH]c(C2CCCN2)n1 (stereo unspecified)	0.4601%	21.13%
CC(C)(C)C(NC(=O)CCS(C)(=O)=O)c1ccc(F)cc1F (stereo unspecified)	0.135%	15.56%
Cn1nc(Cn2ccnc2)c2c1CN(C(=O)c1ccc[nH]1)C2	-7.263%	21%
Cc1nnc(CN2CCCC(c3cc(C(N)=O)[nH]n3)C2)o1 (stereo unspecified)	6.558%	11.9%
Cc1cccc(C2(CNC(=O)CCN3C(=O)CCC3=O)CCCC2)c1	3.649%	14.61%
Cc1cccc(C(=O)N2CCSCC2)c1NC(=O)c1ccsc1	-0.5094%	8%
Nc1cc(-c2c[nH]nc2C2CCN(C(=O)C3CCCC3)C2)ccn1 (stereo unspecified)	-0.5137%	16.78%
CC1(C)CN(C(CNS(C)(=O)=O)c2ccc(Cl)cc2)CCO1 (stereo unspecified)	3.728%	15.62%
Cc1nsc(NC(=O)N2CCCCC2CCCO)n1 (stereo unspecified)	8.805%	15.38%
O=C(CCC(=O)N1CCCC1c1ccsc1)N1CCOCC1 (stereo unspecified)	-13.62%	20.99%
Cc1nc2oc(C(=O)N3CCOCC3)c(N)c2c2c1CCCC2	-51.61%	8.696%
COc1ccc(CNC(=O)NCC(O)(c2cccs2)C2CC2)cc1 (stereo unspecified)	8.653%	10.43%
Cc1ncsc1CN1C[C@@H]2COC[C@]2(COc2ccc(C#N)cn2)C1	-2.311%	1.905%
CSc1ccc(-c2nc(CN3CCC(NC(C)=O)CC3)c(C)o2)cc1	-0.6392%	13.21%
CCS(=O)(=O)CCSc1ccc(Br)cc1	8.254%	13.83%
CCn1c(SCC(N)=O)nnc1C(C)NC(=O)c1ccc(Cl)cc1 (stereo unspecified)	9.245%	8.621%
CC1=C(c2ccc(C)cc2)S(=O)(=O)N=C1N1CCc2ccccc21	6.705%	31.46%
CC(C)Cc1nc(CO)n(-c2ccc3c(c2)OCCO3)n1	32.38%	18.37%
Cc1nocc1C(=O)N1CCOC2(COCCN(CC3CC3)C2)C1 (stereo unspecified)	-4.345%	15.38%
CC(c1ccccc1)N1Cc2nc(N(C)C)ncc2C1=O (stereo unspecified)	18.89%	3.54%
COc1ccc(N2CCN(C(=O)C3CN(C)C(=O)N3)CC2(C)C)cc1 (stereo unspecified)	-2.457%	1.429%
Nc1ccnc(N2CCCC(CCc3ccccc3)(C(=O)O)C2)n1 (stereo unspecified)	-0.3894%	20%
CCN(CC1CCOC1)C(=O)c1ccc(COc2ccccc2C#N)o1 (stereo unspecified)	3.415%	5.333%
COc1cnc(N2C[C@@H](CN3CCOCC3)[C@@H](CO)C2)nc1	-11.77%	5.479%
O=S1(=O)COCCN1Cc1cccc(Cl)c1	-8.819%	28.85%
CC(C)CC(=O)Nc1cc(C(=O)N(C)C(C)C)ccc1Cl	-12.95%	11.11%
O=C(O)[C@H]1OCC(=O)N(Cc2cccc(Cl)c2)[C@@H]1c1ccccc1	-13.93%	11.43%
CC(=O)NC(C)C(=O)Nc1ccc(OCc2cccc(F)c2)cc1C (stereo unspecified)	0.3663%	12.82%
CCOc1cc(C(=O)N(C)C)ccc1NC(=O)C(C)c1ccsc1 (stereo unspecified)	9.047%	9.677%
O=C1[C@@H]2CCN(Cc3ccoc3)C[C@@H]2OCCN1c1cccnc1	-1.567%	5.882%
O=S(=O)(CCN1CCOC(Cn2cccn2)C1)c1ccccc1 (stereo unspecified)	-7.427%	3.03%
CC(Sc1nnnn1C1CCOCC1)C(=O)NC1CCCCC1 (stereo unspecified)	-10.15%	22.33%
CC(=O)Nc1cccc(CN2CCCC2C(=O)Nc2nccs2)c1 (stereo unspecified)	-11.77%	6.306%
COCc1cccc(NS(=O)(=O)c2cc(C(=O)O)cs2)c1	11.34%	2.128%
O=C(C1CCC1)N1CCCC(c2ccnc(Nc3cnccn3)n2)C1 (stereo unspecified)	-4.049%	3.125%
Cc1cc(N2CCC(C(=O)O)(n3ccc(C(C)(C)C)n3)CC2)nc(N)n1	-11.84%	14.75%
COc1ccccc1CN1C(=O)O[C@@H]2CN(c3nccs3)C[C@@H]21	-12.65%	14.56%
O=C(NCCNC(=O)C1CCN(CC(F)(F)F)CC1)c1ccoc1	4.597%	25%
CC(=O)N1CCC(C(=O)Nc2nnc(C(F)(F)F)[nH]2)CC1	2.117%	22.37%
CC(C)C1SCC(=O)Nc2c1c(O)nn2C1CCCCC1 (stereo unspecified)	-6.619%	2.632%
N#Cc1cc2c(=O)n(CC(O)C(F)(F)F)ccc2[nH]c1=O (stereo unspecified)	-116.6%	3.226%
Cc1ccc2nc(CNCCCN3CCCC3)cc(O)c2c1	0.6207%	24.18%
O=C(Nc1ccccc1)N1C[C@@H]2OCCN(C(=O)c3ccco3)[C@@H]2C1	-11.39%	19.3%
Cc1csc(C2(NC(=O)NCCN3CCOCC3)CCCC2)n1	-9.358%	16.88%
CN(C)c1ccccc1C(=O)N1CCCC(c2ccc(C(=O)O)cc2)C1 (stereo unspecified)	0.7945%	10.84%
COc1nc2ccn(CCc3scnc3C)c(=O)c2cc1C#N	-2.117%	5.714%
CN(C)S(=O)(=O)N1CCN(c2ccnc(N3CCCCC3)n2)CC1	-4.677%	12.33%
Cn1nc(CN2CCC(c3ccncc3)CC2)c2c(Cl)cccc21	-4.947%	21.49%
O=C(CCc1nccs1)N1CCN(c2ccc(Cl)cn2)CC1	-20.84%	4.425%
Cc1ccc(NC2CCN(C(=O)COC3CCCC3)CC2)nn1	-7.591%	19.3%

Repeated from the top, 6 entries:

* COc1ccc(-n2c(CO)nc3ccccc32)cc1CO | A: -2.059%; B: 34.29%
* Cc1ccc(OCCN(C)C(=O)CCCN2CCCC2=O)c(C)c1 | A: 3.178%; B: 16.39%
* Cc1oncc1C(=O)N1CC[C@H]2[C@@H]1CCC(=O)N2CC1CC1 | A: -9.881%; B: 0%
* COCCn1cncc1Cn1cccc(C(F)(F)F)c1=O | A: 11.54%; B: 2.564%
* Cc1noc(C)c1CN1CCCC2(CCN(C(=O)CC3CC3)C2)C1 (stereo unspecified) | A: 8.539%; B: 12.2%
* O=C(NCc1ccccc1Cn1cncn1)C1CCCC1 | A: 1.427%; B: 16.67%